# Percent effect of library compounds

Chains of the proteins cited; added tags and fusions are not shown. Residues count along the entry.
UniProt Q8IDJ8, 1-583: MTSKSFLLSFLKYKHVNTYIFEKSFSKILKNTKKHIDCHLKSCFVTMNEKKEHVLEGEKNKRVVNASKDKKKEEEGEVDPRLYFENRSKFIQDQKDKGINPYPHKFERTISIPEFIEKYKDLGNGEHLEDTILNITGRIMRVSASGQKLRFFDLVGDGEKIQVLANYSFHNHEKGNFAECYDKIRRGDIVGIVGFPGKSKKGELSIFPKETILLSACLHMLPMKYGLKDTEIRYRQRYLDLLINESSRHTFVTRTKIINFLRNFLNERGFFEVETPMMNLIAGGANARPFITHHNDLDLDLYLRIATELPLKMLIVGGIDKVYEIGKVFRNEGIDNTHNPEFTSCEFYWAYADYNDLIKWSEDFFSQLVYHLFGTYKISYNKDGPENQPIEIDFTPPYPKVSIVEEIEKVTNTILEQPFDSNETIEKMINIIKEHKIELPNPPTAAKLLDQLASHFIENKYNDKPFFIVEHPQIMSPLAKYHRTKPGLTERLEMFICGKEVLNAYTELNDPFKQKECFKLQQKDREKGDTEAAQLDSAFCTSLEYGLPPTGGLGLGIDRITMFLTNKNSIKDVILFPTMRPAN
UniProt P9WFT3, whole entry: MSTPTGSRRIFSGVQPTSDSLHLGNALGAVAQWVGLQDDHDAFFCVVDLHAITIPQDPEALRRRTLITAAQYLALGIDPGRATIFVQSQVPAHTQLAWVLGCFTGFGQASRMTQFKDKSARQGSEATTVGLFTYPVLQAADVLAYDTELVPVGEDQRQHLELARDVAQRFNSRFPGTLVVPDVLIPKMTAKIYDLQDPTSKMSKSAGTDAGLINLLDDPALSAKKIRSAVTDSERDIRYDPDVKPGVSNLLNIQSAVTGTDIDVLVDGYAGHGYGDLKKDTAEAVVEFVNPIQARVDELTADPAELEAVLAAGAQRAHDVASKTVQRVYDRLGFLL
UniProt P9WPC5, whole entry: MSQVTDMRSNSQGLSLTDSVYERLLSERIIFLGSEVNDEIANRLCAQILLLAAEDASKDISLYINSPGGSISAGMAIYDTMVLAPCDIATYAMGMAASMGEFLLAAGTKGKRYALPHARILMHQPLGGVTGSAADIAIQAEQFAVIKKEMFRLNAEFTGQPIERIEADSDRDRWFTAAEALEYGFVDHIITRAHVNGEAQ
UniProt P9WPC3, whole entry partner: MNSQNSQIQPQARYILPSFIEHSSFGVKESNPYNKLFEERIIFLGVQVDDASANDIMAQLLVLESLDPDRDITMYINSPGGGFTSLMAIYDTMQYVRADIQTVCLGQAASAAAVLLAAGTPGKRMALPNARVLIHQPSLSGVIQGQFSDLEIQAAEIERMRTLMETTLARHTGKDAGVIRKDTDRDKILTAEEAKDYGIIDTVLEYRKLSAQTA

The values are deposited in ChEMBL (CHEMBL3988442, “University of Dundee, Small-Polar-MMV Screening Library” (2021)).

Values are the deposited “Percent Effect”, in %. How 0% and 100% were set is not recorded. Most values in the screen are low, and negative values occur. This is an unselected part of the compounds tested. A dash means the value is not listed here; it may have been measured.

A: 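Enzyme assay of the cytosolic lysyl-tRNA synthetase in 384-well plates, read by luminescence. Target: Lysine-tRNA ligase, Plasmodium falciparum 3D7 (UniProt Q8IDJ8). Tested at 30 µM. Direction is inferred from only a few compounds that gave an IC50; most scored high, so higher reads as stronger inhibition. Of about 69,000 compounds tested this way, about 49 (0.071%) reached 50% or more in at least one test.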
B: 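Enzyme assay of tryptophanyl-tRNA synthetase; the read-out is not stated. Target: Tryptophan-tRNA ligase, Mycobacterium tuberculosis (UniProt P9WFT3). Compounds at 10 µM. Higher most likely means stronger inhibition; the record gives no direction and few retests gave an IC50. Size under these conditions: about 65,000 compounds, about 64 of them at 50% or above in at least one test.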
C: 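Protease assay of ClpP1P2, read by the AMC dye that it sets free. Target: ClpP1P2, Mycobacterium tuberculosis (UniProt P9WPC5 and UniProt P9WPC3). Tested at 50 µM. Direction is inferred from only a few compounds that gave an IC50; most scored high, so higher reads as stronger inhibition. Most other retested compounds had strongly negative values. Of about 69,000 compounds tested this way, about 10 (0.015%) reached 50% or more in at least one test.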

structure,A,B,C
Oc1ccccc1CN1C[C@H](O)C[C@H]1c1nc(Cc2ccccc2)no1,6.226,-2.334,-4.238
CNC(=O)c1cc2c(nc1NCC(C)C)CCN(S(=O)(=O)C1CC1)CC2,5.88,-4.526,-74.9
O=C(c1coc2ccccc12)N1CCCC1,0.2485,-0.4128,2.427
CCCC(C#N)NC(=O)Cc1csc(CC)n1 (configuration not stated),6.489,0.9166,-3.221
CCNC(=O)CNS(=O)(=O)Cc1cc(-c2ccccc2)no1,3.43,1.321,-4.319
CCC(C)Sc1ncc(-c2c(C#N)c(N)nc3c2COCC3)cn1 (configuration not stated),0.9283,-0.3215,-12.57
CCn1cc2c(n1)CN(S(=O)(=O)c1ccc(C)cc1)CC2COC (configuration not stated),2.623,-1.763,-4.825
NC(=O)CN1CCc2c(Br)ccc(F)c2C1,2.661,-3.374,-2.087
CCc1nnc(SCc2nonc2C)n1C,1.047,0.5833,0.9376
O=C(Cc1ccc(F)cc1)N1CCN(CC(O)c2ccccc2)CC1 (configuration not stated),1.16,-3.719,-14.49
COc1cccc(N2C(=O)CC3(CCNCC3)C2=O)c1,4.277,8.14,-5.815
CC(C)(C)n1ncc2c1NC(=O)CC2c1ccsc1 (configuration not stated),4.663,-2.757,1.893
O=C(c1ccccc1N1CCOCC1)N1CCCC1Cn1cccn1 (configuration not stated),7.428,5.452,-6.742
O=C(c1ccc2c(c1)CCCC2)N1CCn2ncnc2C1,25.3,1.257,-13.74
Cc1ncoc1C(=O)N1CCOC(Cc2ccccc2)C1 (configuration not stated),7.07,2.857,-11.77
COc1cccc(OC)c1-c1ccnc2cc(CC(=O)NC(C)C)nn12,3.6,-,-3.916
CN(C)Cc1cnc(C2CCN(C(=O)c3cccc(Cl)c3)C2)[nH]1 (configuration not stated),5.392,-1.715,-13.04
c1ccc(OC2COC3(CCN(CC4CC4)CC3)C2)nc1 (configuration not stated),0.4058,-2.654,4.624
c1cncc(C[C@H]2[C@H](N3CCOCC3)CCN2Cc2nccs2)c1,4.173,-1.022,-0.6462
CCn1ncc(CN(C)C(=O)c2ccn(C)n2)c1C,5.665,2.037,-18.63
COC(=O)c1ccc(NC2CCN(CC(F)(F)F)C2=O)cc1C (configuration not stated),-6.327,-10.58,12.23
COc1cccc2c1OCC(C(=O)NCCn1nc(C)c(Cl)c1C)C2 (configuration not stated),0.9341,-3.311,-20.17
COC(=O)CN(Cc1ccccc1C)C(=O)CCNC(=O)C(C)(C)C,2.678,3.511,4.236
O=C(O)C1CN(c2cccc(F)c2)CCO1 (configuration not stated),-0.4102,30.59,10.27
Cc1nn(C)c2nc3c(c(C(=O)/N=c4\[nH]nc(C(C)C)s4)c12)CCC3,-1.291,-3.698,-0.5671
CC(C)N1CCOCC2(CCCN(C(=O)CCc3cccnc3)C2)C1 (configuration not stated),3.05,1.591,3.559
O=C(Cc1ccc2c(c1)OCCO2)N1CCN(c2cnccn2)CC1,0.9886,-2.42,-11.23
COCC(=O)N1CCCC1c1nccnc1Nc1nc(C)cs1 (configuration not stated),2.346,-,3.708
OC1(CN2CCCCC2)CCN(c2nccc(C(F)(F)F)n2)C1 (configuration not stated),0.1863,19.11,0.1532
COCCN1C[C@H]2CN(C(=O)NC(C)C)CCN2C1=O,5.908,-6.099,-7.022
Cc1ccsc1C1CC(=O)Nc2c1cnn2C(C)C (configuration not stated),3.079,2.644,-17.94
CN(Cc1cccnc1)[C@@H]1CN(c2ccccn2)[C@@H]2CCCO[C@H]12,-0.3774,-7.713,-5.672
CCCn1ccnc1-c1cccc(NC(=O)[C@H]2CCC(=O)N2)c1,7.738,3.129,-13.28
CCN(Cc1ccc2c(c1)OCO2)C(=O)c1ccc(=O)n(C)c1,-0.3054,-4.159,8.114
CCn1nc2c(cc1=O)CN(CC(=O)Nc1nc(C)c(C)s1)CC2,2.787,1.541,-7.226
O=C(c1ccncc1)N1C[C@@H]2CC[C@H](C1)N(C(=O)N1CCOCC1)C2,3.404,1.066,-7.665
CN(C)c1cc(C(=O)N2CCN(S(C)(=O)=O)CC2)ccn1,-2.485,-1.707,16.19
O[C@@H]1C[C@@H](c2nc(Cc3ccccc3)no2)N(Cc2ccc(F)cc2)C1,3.29,-2.334,-2.205
Cc1ccc(C(=O)N2CCC3(CCCN(c4ccc(C)nn4)C3)C2)cn1 (configuration not stated),7.517,-5.315,-0.6515
COc1ccc(CN2CC[C@@H](N)[C@@H](OC)C2)cc1Cn1cncn1,5.037,-1.5,1.913
Cc1cc(CN2CCN(C(=O)c3sccc3C(C)C)CC2)no1,4.019,-4.926,3.698

3 of the entries, repeated:

| structure | A | B | C |
|---|---|---|---|
| `CCNC(=O)CNS(=O)(=O)Cc1cc(-c2ccccc2)no1` | 3.43 | 1.321 | -4.319 |
| `Cc1ncoc1C(=O)N1CCOC(Cc2ccccc2)C1` (configuration not stated) | 7.07 | 2.857 | -11.77 |
| `Cc1ccsc1C1CC(=O)Nc2c1cnn2C(C)C` (configuration not stated) | 3.079 | 2.644 | -17.94 |